{"source": "patent US5604231A", "about": "“Pharmaceutical compositions for prevention and treatment of ulcerative colitis” (priority 1995, dated 1997)", "target": "nicotinic receptors", "assay": "Determination of binding of compounds to relevant receptor sites (inhibition of L-[3H]nicotine binding, brain membrane preparations)", "set-up": "species or system rat (Sprague-Dawley)", "note": "At least one compound was matched to its structure with a doubt left."}
{"compound": "CNCCCCc1cccnc1", "note": "[Sample No. 7, N-methyl-(3-pyridinyl)-butane-1-amine]", "values": [{"measurement": "Ki", "result": 910, "unit": "nM"}]}
